This passage reports binding results from article PMC6113293, “Phosphorylation of ULK1 affects autophagosome fusion and links chaperone-mediated autophagy to macroautophagy” (Nature Communications, 2018).

Sequences of proteins named here, by UniProt entry; tags and fusion partners are left off.
UniProt P11142: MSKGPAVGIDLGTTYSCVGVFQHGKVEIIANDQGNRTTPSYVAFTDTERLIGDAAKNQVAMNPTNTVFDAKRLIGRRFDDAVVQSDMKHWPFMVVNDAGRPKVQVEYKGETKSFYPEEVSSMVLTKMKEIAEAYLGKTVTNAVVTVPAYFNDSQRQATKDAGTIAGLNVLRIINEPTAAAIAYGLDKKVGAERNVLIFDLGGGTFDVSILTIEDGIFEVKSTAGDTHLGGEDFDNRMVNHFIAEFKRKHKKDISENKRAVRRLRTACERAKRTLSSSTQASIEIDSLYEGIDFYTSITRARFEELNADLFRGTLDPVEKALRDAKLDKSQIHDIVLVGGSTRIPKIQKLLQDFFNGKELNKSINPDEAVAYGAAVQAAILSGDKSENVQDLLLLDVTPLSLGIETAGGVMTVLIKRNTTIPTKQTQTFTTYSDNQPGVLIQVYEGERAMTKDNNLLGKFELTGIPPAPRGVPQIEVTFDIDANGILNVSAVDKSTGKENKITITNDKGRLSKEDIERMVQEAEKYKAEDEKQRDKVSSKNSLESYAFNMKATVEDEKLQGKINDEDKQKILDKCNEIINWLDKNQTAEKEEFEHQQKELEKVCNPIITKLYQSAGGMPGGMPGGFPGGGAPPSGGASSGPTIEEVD

Changes are numbered by the printed parent chain. Results are given in words; binding and its absence hold for the method and conditions named. Binding seen in cells or lysates may run through a third protein. Some entries that bind do so weakly or less than the wild type. Sequences can lack the tags named with a protein.

Test [1] deals with T1, Flag-ULK1 (UniProt O75385).
T1 sequence: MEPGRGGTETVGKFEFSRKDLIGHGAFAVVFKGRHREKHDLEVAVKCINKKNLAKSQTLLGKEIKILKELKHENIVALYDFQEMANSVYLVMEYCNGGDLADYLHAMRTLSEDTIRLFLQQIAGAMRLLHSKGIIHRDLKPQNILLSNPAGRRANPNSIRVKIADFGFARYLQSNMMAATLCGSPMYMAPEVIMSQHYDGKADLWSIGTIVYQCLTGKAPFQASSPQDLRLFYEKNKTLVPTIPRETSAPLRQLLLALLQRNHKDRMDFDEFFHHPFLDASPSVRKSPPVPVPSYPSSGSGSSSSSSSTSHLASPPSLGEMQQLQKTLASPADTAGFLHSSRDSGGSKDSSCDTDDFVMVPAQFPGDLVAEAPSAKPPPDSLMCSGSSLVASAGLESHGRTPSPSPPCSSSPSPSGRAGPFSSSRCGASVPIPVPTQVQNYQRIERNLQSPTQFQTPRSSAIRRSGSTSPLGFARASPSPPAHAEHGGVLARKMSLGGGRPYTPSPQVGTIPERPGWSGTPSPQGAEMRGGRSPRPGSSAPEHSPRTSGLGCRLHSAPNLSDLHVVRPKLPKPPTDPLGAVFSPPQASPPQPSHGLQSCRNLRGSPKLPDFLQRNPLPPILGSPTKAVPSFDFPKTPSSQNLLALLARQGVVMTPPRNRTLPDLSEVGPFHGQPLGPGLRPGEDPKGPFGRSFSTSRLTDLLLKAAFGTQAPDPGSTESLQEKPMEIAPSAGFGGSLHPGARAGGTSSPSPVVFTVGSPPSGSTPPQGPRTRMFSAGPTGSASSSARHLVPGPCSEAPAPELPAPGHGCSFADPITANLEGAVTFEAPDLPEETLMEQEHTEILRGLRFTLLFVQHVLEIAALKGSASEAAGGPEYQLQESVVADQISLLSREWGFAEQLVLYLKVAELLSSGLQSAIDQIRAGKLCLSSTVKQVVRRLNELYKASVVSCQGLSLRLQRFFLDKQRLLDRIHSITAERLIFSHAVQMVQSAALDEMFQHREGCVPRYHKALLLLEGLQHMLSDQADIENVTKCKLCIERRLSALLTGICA
The experiment in a line: co-IP; GST-tagged truncations co-transfected with the tagged partner into HEK293T; 'IP'; which partner was precipitated is not told.

Test [2] concerns the target T2, GST-ULK1 (UniProt O75385).
T2 sequence: T1 sequence
The experiment in a line: pull-down; GST-ULK1 (or GST) co-transfected with the tagged partner in HEK293T; lysate pulled down with glutathione agarose at 4 °C overnight; western blot. In general terms: A western blot detects proteins with antibodies after separation by electrophoresis.

In test [3] the target is T3, ULK1 S423D (tag not told) (UniProt O75385).
T3 sequence: T1 sequence with S423D
The experiment in a line: co-IP; ULK1 variants transfected with Lamp2a or HA-HSC70; IP assay; which partner was precipitated is not told.

Test [4] addresses T4, GST-ULK1 279–525 (truncation, in mammalian cells) (UniProt O75385).
T4 sequence: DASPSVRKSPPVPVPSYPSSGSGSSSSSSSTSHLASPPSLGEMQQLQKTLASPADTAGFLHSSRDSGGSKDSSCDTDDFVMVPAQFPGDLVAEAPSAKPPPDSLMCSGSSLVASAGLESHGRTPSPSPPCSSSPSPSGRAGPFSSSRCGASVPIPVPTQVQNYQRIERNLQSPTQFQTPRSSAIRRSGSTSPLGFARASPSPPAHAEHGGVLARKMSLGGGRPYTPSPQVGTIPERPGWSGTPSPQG
The experiment in a line: co-IP; GST-tagged truncations co-transfected with the tagged partner into HEK293T; 'IP'; which partner was precipitated is not told.

As for “GST-PKCα 167–338 (fragment 2) (from UniProt P17252 167-338) (domain or fragment)”, in test [1], the binding entry is given as “binds”.

On to HA-HSC70 (from UniProt P11142 1-646), for which the binding result in test [2] and in test [3] was “binds” throughout.

On to “PKCα (construct not told) (from UniProt P17252 1-672) (enzyme)”, for which the binding entry in test [4] was “binds”.
